Data source: PubChem BioAssay AID1224826 (NIAID, 2016)
The deposit covers about 17,000 reagents; below is an unselected part. Over the whole deposit, about 1,110 (6.6%) got an active call. 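Active means lowered or raised reporter signal; replicate intensities are raw and not normalised per plate.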

Purpose: 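Knock-downs that raise or lower Tnf reporter signal after endotoxin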 (primary screen)
Cell system: RAW264.7 G9 macrophages from mouse bearing reporters for p65 (GFP) and the Tnf promoter (mCherry)
Knock-down reagent: siRNA pool against mouse genes, 100 nM
Timing: 16 h of LPS stimulation, after 2 days of siRNA transfection
Conditions: bacterial lipopolysaccharide (Salmonella minnesota R595), 10 ng/ml
Measured: 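Imaged Tnf reporter mCherry in nuclei, minus background, normalised per plate to the median and expressed as robust z-scores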
Reading the numbers: Tnf reporter robust z-score: higher = stronger Tnf promoter reporter signal after LPS; Tnf reporter intensity: higher = stronger Tnf promoter reporter signal
Call rule: 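a well counts as active at a score of -1.3 or below (Tlr4 knock-down control median) or above 3 (raised signal); controls and wells holding fewer than 50 cells are excluded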
Calls: active = Tnf reporter clearly lowered or raised; inactive = no clear change in Tnf reporter

no.	Gene	Tnf reporter robust z-score	fewer than 50 cells in well	Tnf reporter intensity, replicate 1	Tnf reporter intensity, replicate 2	outcome
1	Cry2 (cryptochrome circadian regulator 2)	0.01	enough cells in well	118	247	inactive
2	Mtus2 (microtubule associated tumor suppressor candidate 2)	-0.92	enough cells in well	67.6	111	inactive
3	Ly6g5c (lymphocyte antigen 6 family member G5C)	2.13	enough cells in well	317	259	inactive
4	Sepsecs	-1.66	enough cells in well	27	62.3	active
5	Actl9 (actin-like 9)	1.75	enough cells in well	335	116	inactive
6	Itih3 (inter-alpha trypsin inhibitor, heavy chain 3)	0.38	enough cells in well	246	127	inactive
7	Ptpn5 (protein tyrosine phosphatase, non-receptor type 5)	-0.55	enough cells in well	161	130	inactive
8	Maged2 (MAGE family member D2)	1.27	enough cells in well	292	192	inactive
9	Or4p18 (olfactory receptor family 4 subfamily P member 18)	-0.78	enough cells in well	125	121	inactive
10	Or6c219 (olfactory receptor family 6 subfamily C member 219)	1.15	enough cells in well	97.3	164	inactive
11	Tnni1 (troponin I, skeletal, slow 1)	0.65	enough cells in well	318	143	inactive
12	Ddx59 (DEAD box helicase 59)		fewer than 50 cells per well; well left out of calls	179	87.1	inactive
13	Ppp4r3b (protein phosphatase 4 regulatory subunit 3B)	-0.21	enough cells in well	146	165	inactive
14	A330015D16RIK	1.5	enough cells in well	240	251	inactive
15	Vipr2 (vasoactive intestinal peptide receptor 2)	0.92	enough cells in well	321	126	inactive
16	Nub1 (negative regulator of ubiquitin-like proteins 1)	-0.69	enough cells in well	132	116	inactive
17	Zdhhc3 (zinc finger, DHHC domain containing 3)		fewer than 50 cells per well; well left out of calls	55.4	104	inactive
18	Erf (Ets2 repressor factor)	1.33	enough cells in well	366	296	inactive
19	Npy6r (neuropeptide Y receptor Y6)	-0.6	enough cells in well	156	81.6	inactive
20	Shb (src homology 2 domain-containing transforming protein B)	0.72	enough cells in well	351	263	inactive
21	Pcyox1l (prenylcysteine oxidase 1 like)	1.47	enough cells in well	234	280	inactive
22	Tuba4a (tubulin, alpha 4A)	0.74	enough cells in well	259	321	inactive
23	L3hypdh (L-3-hydroxyproline dehydratase (trans-))	0.59	enough cells in well	296	79.5	inactive
24	Nolc1 (nucleolar and coiled-body phosphoprotein 1)	-0.81	enough cells in well	167	84.4	inactive
25	Tac2 (tachykinin 2)	-1.58	enough cells in well	113	61.9	active
26	Pttg1ip (pituitary tumor-transforming 1 interacting protein)	0.01	enough cells in well	336	188	inactive
27	Ppp2r5a (protein phosphatase 2, regulatory subunit B', alpha)	-0.23	enough cells in well	259	150	inactive
28	Dpm2 (dolichyl-phosphate mannosyltransferase subunit 2, regulatory)	3.66	enough cells in well	403	267	active
29	Slc25a33	-0.32	enough cells in well	165	123	inactive
30	Dgat2 (diacylglycerol O-acyltransferase 2)	1.58	enough cells in well	296	241	inactive
31	Tmem139 (transmembrane protein 139)	-1.45	enough cells in well	89.8	75.2	active
32	Mrpl11 (mitochondrial ribosomal protein L11)	0.69	enough cells in well	266	33.7	inactive
33	Lyset (lysosomal enzyme trafficking factor)	-0.56	enough cells in well	183	106	inactive
34	Tmc6 (transmembrane channel-like gene family 6)	-0.83	enough cells in well	186	85.3	inactive
35	Cbr2 (carbonyl reductase 2)	-0.13	enough cells in well	160	165	inactive
36	Rhoa (ras homolog family member A)	1.86	enough cells in well	562	294	inactive
37	Zfpl1 (zinc finger like protein 1)	0.66	enough cells in well	175	126	inactive
38	Il16 (interleukin 16)	-1.38	enough cells in well	160	71.3	active
39	Tgfbr1 (transforming growth factor, beta receptor I)	0.15	enough cells in well	139	176	inactive
40	Sipa1l3 (signal-induced proliferation-associated 1 like 3)	-0.99	enough cells in well	169	58.1	inactive
